{
  "source": "paper PMC2854689",
  "binders": {"B1": {"name": "Toc33-GFP (Toc33 fused at its C terminus to GFP) (protein, UniProt O23680 1-297)", "chain": "MGSLVREWVGFQQFPAATQEKLIEFFGKLKQKDMNSMTVLVLGKGGVGKSSTVNSLIGEQVVRVSPFQAEGLRPVMVSRTMGGFTINIIDTPGLVEAGYVNHQALELIKGFLVNRTIDVLLYVDRLDVYRVDELDKQVVIAITQTFGKEIWCKTLLVLTHAQFSPPDELSYETFSSKRSDSLLKTIRAGSKMRKQEFEDSAIAVVYAENSGRCSKNDKDEKALPNGEAWIPNLVKAITDVATNQRKAIHVDKKMVDGSYSDDKGKKLIPLIIGAQYLIVKMIQGAIRNDIKTSGKPL"}},
  "molecular_target": "T1, NLS-RFP-AKR2A (three tandem copies of the SV-40 large T antigen NLS fused to RFP and Arabidopsis AKR2A) (Arabidopsis) (UniProt Q9SAR5)",
  "T1 sequence": "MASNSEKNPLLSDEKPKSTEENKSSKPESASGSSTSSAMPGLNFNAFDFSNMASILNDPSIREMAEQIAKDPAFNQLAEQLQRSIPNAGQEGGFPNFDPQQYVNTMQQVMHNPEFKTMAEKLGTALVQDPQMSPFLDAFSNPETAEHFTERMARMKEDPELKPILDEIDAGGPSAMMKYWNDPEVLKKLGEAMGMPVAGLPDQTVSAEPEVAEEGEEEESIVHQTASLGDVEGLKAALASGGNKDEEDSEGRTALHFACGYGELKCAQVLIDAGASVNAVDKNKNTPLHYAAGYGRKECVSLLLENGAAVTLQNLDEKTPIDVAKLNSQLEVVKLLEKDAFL",
  "test": "nuclear mislocalization assay; co-expression in tobacco BY-2 cells (biolistic bombardment, 500 ng of the plasmid for the GFP fusion protein); relocation of the partner to the nucleus by NLS-RFP-AKR2A, against NLS-RFP alone, seen by epi-(immuno)fluorescence microscopy",
  "note": "Results are given in words; binding and its absence hold for the method and conditions named. Some binding calls cover weakened binding; strength is not graded here. Tags and fused reporters may be left off the sequences shown.",
  "data": [
    {"binder": "B1", "values": [
      {"measurement": "binding", "result": "binds"}
    ]}
  ]
}
